{
  "sequences": {"note": "Chains of the proteins cited; added tags and fusions are not shown.", "UniProt Q9EPK8": "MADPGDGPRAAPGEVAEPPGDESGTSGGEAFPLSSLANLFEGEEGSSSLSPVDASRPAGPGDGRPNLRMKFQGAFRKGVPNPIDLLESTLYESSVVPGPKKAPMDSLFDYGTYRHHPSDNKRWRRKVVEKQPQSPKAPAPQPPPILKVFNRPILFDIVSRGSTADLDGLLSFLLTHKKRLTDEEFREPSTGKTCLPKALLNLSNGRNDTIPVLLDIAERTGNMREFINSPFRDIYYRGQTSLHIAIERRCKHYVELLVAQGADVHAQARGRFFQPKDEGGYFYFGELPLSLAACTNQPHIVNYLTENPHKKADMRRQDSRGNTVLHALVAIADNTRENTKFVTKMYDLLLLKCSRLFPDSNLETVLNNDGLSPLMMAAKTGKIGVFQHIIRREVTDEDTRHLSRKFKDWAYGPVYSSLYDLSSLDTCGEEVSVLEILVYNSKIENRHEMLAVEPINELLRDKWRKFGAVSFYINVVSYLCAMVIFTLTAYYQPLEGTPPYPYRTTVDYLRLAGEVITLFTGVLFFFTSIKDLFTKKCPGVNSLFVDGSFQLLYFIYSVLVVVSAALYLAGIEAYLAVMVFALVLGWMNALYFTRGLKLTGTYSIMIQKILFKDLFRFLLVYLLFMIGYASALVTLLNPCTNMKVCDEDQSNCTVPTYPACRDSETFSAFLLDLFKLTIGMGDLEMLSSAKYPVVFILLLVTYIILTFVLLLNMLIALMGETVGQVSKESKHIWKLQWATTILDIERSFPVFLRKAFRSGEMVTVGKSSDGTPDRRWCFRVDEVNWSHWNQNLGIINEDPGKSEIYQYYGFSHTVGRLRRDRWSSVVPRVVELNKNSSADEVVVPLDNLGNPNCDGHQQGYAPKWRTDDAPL", "UniProt P58391": "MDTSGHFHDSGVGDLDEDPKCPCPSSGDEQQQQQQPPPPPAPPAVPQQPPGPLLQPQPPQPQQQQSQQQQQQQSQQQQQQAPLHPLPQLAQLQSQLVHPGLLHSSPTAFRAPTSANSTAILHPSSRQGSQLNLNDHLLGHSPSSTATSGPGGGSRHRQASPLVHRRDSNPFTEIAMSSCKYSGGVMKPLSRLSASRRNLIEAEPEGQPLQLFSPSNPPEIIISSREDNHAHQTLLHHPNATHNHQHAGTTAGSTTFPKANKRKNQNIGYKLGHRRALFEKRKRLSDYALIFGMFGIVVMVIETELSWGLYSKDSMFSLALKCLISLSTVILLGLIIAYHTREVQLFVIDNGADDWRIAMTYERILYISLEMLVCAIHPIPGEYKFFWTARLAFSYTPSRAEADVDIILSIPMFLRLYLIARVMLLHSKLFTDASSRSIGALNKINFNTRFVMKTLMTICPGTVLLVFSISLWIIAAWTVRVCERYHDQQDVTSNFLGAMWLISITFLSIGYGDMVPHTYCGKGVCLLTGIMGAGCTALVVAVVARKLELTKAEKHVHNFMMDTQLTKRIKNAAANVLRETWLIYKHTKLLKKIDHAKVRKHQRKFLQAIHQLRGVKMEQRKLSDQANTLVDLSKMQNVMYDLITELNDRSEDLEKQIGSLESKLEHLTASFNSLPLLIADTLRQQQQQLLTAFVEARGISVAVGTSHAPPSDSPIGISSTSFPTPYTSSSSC", "UniProt P70605": "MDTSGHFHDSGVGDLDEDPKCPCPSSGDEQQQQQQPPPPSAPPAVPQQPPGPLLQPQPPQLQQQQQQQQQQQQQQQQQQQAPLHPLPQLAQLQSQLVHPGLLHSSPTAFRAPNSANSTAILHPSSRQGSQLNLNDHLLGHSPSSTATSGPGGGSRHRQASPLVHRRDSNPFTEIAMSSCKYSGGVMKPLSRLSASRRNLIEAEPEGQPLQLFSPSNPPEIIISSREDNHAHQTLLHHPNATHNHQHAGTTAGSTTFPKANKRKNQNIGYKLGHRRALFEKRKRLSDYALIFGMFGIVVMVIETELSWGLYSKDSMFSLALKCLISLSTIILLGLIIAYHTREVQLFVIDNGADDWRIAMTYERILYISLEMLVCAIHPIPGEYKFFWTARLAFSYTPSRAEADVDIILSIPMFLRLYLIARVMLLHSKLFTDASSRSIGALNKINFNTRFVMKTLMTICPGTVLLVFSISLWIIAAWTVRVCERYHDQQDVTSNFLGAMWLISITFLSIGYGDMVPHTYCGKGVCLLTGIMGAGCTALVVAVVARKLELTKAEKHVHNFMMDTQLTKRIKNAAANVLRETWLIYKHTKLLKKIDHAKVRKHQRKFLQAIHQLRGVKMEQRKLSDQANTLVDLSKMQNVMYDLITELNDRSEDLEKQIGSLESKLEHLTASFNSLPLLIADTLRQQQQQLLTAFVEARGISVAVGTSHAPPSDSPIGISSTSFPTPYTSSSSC"},
  "source": "paper PMC5666316",
  "molecules": {"B1": {"name": "caveolin-1, endogenous in murine endothelial cells (protein, UniProt P49817 1-178)", "chain": "MSGGKYVDSEGHLYTVPIREQGNIYKPNNKAMADEVTEKQVYDAHTKEIDLVNRDPKHLNDDVVKIDFEDVIAEPEGTHSFDGIWKASFTTFTVTKYWFYRLLSTIFGIPMALIWGIYFAILSFLHIWAVVPCIKSFLIEIQCISRVYSIYVHTFCDPLFEAIGKIFSNIRISTQKEI"}},
  "key": {"[1]": {"target": "TRPV4, endogenous in mouse arterial endothelial cells (mouse (endogenous in arterial ECs)) (UniProt Q9EPK8)", "assay": "FRET or BRET; immuno-FRET with anti-TRPV4 and anti-KCa2.3 primary antibodies on arterial sections from mice: control, high-salt diet (8% NaCl), L-NNA intake, AngII delivery; also after AAV-Flt1-KCa2.3 or JNc-440 (1 mg/kg)"}, "[2]": {"target": "TRPV4, endogenous in mouse arterial endothelial cells (mouse (endogenous in arterial ECs)) (UniProt Q9EPK8)", "assay": "co-IP; co-immunoprecipitation from mouse ECs, normal and hypertensive mice; method not shown (Appendix)"}, "[3]": {"target": "TRPV4, endogenous in mouse arterial endothelial cells (mouse (endogenous in arterial ECs)) (UniProt Q9EPK8)", "assay": "FRET or BRET; immuno-FRET on arterial sections from normotensive mice injected intravenously with AAV-Flt1-KCa2.3-17C or the AAV-Flt1 vector"}, "[4]": {"target": "CFP-tagged TRPV4 (wild type) (UniProt Q9EPK8)", "assay": "FRET or BRET; acceptor photobleaching FRET in HEK cells co-expressing CFP-tagged TRPV4 and YFP-tagged KCa2.3 (wild type or deletions); negative control CFP and YFP as separate molecules, positive control YFP-CFP dimer"}, "[5]": {"target": "TRPV4, endogenous in mouse arterial endothelial cells (mouse (endogenous in arterial ECs)) (UniProt Q9EPK8)", "assay": "co-IP; co-immunoprecipitation from mouse ECs, normal and hypertensive mice; method not shown (Appendix)", "remark": "listed apart in the source"}, "[6]": {"target": "KCa2.3, endogenous in mouse arterial endothelial cells (mouse (endogenous in arterial ECs)) (UniProt P58391)", "assay": "co-IP; co-immunoprecipitation from mouse ECs, normal and hypertensive mice; method not shown (Appendix)"}},
  "note": "Results are given in words; binding and its absence hold for the method and conditions named. In cells and extracts the contact can be indirect. Some binding calls cover weakened binding; strength is not graded here.",
  "data": [
    {"molecule": "KCa2.3, endogenous in mouse arterial endothelial cells (from UniProt P58391 1-732)", "values": [
      {"measurement": "binding", "setting": "[1]", "result": "binds"},
      {"measurement": "binding", "setting": "[2]", "result": "binds"},
      {"measurement": "binding", "setting": "[3]", "result": "binds"}
    ]},
    {"molecule": "YFP-tagged KCa2.3 (wild type) (from UniProt P70605 1-732)", "values": [
      {"measurement": "binding", "setting": "[4]", "result": "binds"}
    ]},
    {"molecule": "RKLELTKAEKHVHNFMM", "note": "[KCa2.3-17C, the 17 amino acids in the C-terminal of KCa2.3 expressed from AAV-Flt1-KCa2.3-17C]", "values": [
      {"measurement": "binding", "setting": "[3]", "result": "binds"}
    ]},
    {"molecule": "B1", "values": [
      {"measurement": "binding", "setting": "[5]", "result": "binds"},
      {"measurement": "binding", "setting": "[6]", "result": "binds"}
    ]}
  ]
}
